For two molecules, binding results are on record in publication PMC5634508.

Protein sequences, listed by entry. Tags and fused reporters are not part of them.
UniProt Q9UHX1: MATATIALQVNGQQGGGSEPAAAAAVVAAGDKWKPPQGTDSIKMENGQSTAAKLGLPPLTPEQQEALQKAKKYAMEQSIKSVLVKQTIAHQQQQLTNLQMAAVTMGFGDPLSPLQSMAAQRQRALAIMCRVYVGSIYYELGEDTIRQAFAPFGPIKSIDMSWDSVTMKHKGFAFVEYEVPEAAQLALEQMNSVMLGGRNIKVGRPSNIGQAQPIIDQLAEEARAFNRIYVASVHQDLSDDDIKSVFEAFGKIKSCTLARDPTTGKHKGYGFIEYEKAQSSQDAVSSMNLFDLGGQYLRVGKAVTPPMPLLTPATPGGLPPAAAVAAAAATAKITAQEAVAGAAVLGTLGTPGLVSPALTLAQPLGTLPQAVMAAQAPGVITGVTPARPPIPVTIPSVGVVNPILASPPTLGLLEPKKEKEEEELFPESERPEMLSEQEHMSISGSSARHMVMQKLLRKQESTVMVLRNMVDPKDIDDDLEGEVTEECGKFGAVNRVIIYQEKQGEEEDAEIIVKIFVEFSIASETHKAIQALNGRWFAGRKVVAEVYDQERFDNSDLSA
UniProt Q9NQB0: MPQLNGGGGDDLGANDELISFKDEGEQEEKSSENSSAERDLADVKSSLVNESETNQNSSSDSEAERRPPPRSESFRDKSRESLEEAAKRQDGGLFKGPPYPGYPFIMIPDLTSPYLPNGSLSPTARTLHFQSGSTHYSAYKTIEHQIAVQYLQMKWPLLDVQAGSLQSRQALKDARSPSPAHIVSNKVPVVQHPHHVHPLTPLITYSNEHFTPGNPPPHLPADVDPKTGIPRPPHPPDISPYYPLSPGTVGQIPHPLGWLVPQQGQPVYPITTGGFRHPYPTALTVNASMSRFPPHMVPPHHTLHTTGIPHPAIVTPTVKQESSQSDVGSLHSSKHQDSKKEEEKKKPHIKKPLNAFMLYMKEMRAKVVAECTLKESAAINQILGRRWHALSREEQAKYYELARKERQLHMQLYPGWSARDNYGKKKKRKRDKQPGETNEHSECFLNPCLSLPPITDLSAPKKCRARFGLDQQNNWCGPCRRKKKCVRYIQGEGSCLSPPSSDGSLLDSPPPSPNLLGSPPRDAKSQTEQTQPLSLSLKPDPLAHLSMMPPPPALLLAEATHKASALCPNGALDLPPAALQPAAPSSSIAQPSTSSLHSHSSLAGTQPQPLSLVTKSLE

These are yes or no findings as the source states them, for the method shown. Binding seen in cells or lysates may run through a third protein. Some results given as binding are weak or reduced against the parent protein; the word gives no strength. Where a sequence is shown, tags or fusion partners need not be part of it.

This assay deals with HA-tagged PUF60 (wild type) (human) (UniProt Q9UHX1). Put plainly: co-IP; cells co-transfected with HA-PUF60 or HA-PUF60-D2 and FLAG-TCF7L2 or FLAG-HNF4α, lysed at day 2 post-transfection in 0.5% NP-40 in PBS; IP with anti-HA antibody and Protein G agarose beads, 60 min at 4 °C, 4 washes with lysis buffer; immunoblot with anti-FLAG, anti-HA.

As to “FLAG-tagged TCF7L2 (transcription factor 7-like 2) (from UniProt Q9NQB0 1-619)”, the binding result is recorded as “binds”.

B1: FLAG-tagged HNF4α (protein, UniProt P41235 1-474)
chain: MRLSKTLVDMDMADYSAALDPAYTTLEFENVQVLTMGNDTSPSEGTNLNAPNSLGVSALCAICGDRATGKHYGASSCDGCKGFFRRSVRKNHMYSCRFSRQCVVDKDKRNQCRYCRLKKCFRAGMKKEAVQNERDRISTRRSSYEDSSLPSINALLQAEVLSRQITSPVSGINGDIRAKKIASIADVCESMKEQLLVLVEWAKYIPAFCELPLDDQVALLRAHAGEHLLLGATKRSMVFKDVLLLGNDYIVPRHCPELAEMSRVSIRILDELVLPFQELQIDDNEYAYLKAIIFFDPDAKGLSDPGKIKRLRSQVQVSLEDYINDRQYDSRGRFGELLLLLPTLQSITWQMIEQIQFIKLFGMAKIDNLLQEMLLGGSPSDAPHAHHPLHPHLMQEHMGTNVIVANTMPTHLSNGQMCEWPRPRGQAATPETPQPSPPGGSGSEPYKLLPGAVATIVKPLSAIPQPTITKQEVI
As to B1, the binding entry was “no binding”.
